{"source": "ChEMBL document CHEMBL5537214", "about": "“Amine-containing donepezil analogues as potent acetylcholinesterase inhibitors with increased polarity” (RSC Med Chem, 2024)", "key": {"in vitro": {"assay": "in vitro", "settings": "PAMPA"}, "physchem": {"assay": "physchem", "settings": "octanol/water"}}}
{"smiles": "COc1cc2c(cc1OC)C(=O)C(CC1CCN(Cc3ccccc3)CC1)C2", "note": "(configuration not stated) [DONEPEZIL]", "values": [{"measurement": "Papp at 8 h", "setting": "in vitro", "result": 114, "unit": "nm/s"}, {"measurement": "logD", "setting": "physchem", "result": 1.6}]}
